From ChEMBL document CHEMBL3988442, “University of Dundee, Small-Polar-MMV Screening Library” (2021).

Amino acid sequences for entries named in this document (tags omitted).
UniProt E9BF75, entry or part of it: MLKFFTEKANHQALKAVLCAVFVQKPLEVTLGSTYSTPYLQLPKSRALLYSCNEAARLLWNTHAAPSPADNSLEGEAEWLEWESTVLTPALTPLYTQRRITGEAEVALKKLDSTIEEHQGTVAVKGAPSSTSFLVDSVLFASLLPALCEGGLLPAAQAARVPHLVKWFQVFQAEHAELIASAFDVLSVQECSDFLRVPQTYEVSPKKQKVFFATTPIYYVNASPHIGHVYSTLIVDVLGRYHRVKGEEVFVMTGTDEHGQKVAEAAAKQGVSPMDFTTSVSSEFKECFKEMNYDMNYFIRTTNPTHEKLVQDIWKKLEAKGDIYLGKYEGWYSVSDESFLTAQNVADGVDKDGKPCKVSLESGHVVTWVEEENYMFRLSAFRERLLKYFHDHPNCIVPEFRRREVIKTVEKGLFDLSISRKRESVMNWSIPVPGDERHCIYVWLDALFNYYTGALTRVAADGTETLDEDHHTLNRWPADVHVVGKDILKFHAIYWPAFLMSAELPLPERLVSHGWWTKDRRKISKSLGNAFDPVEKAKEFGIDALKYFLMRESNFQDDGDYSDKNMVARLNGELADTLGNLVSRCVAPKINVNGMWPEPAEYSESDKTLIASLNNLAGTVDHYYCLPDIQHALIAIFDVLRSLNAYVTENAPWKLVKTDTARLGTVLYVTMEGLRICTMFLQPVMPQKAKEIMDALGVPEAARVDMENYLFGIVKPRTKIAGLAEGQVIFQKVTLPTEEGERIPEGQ

All values are in %.
How 0% and 100% were set is not recorded. Most values in the screen are low, and negative values occur.
The compounds are a random part of those screened.

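Methionyl-tRNA synthetase (putative), Leishmania donovani (UniProt E9BF75). Primary screen of methionyl-tRNA synthetase; the read-out is not stated. The test concentration is not given. Values are per cent inhibition. Size under these conditions: about 68,000 compounds, about 24 of them at 50% or above in at least one test.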

Result for Cc1nn(C)c(C)c1CN1CCN(CC2(O)CCCN(C)C2)CC1 (stereo not shown) was 23.8%. For O=C(NCCc1ccccn1)[C@@]12CCO[C@@H]1CCN(c1ncccn1)C2 the result was 18.49%. CCOc1ccc(CC(CNC(=O)c2ccc(C)o2)C(N)=O)cc1 (stereo not shown) gave 9.278%. CNC(=O)c1cc2c(s1)CCN(C(=O)CCC1CCCN(C)C1)C2 (stereo not shown) gave 18.73%. Cc1ccc(CCNC(=O)CC2COCCN2S(=O)(=O)N(C)C)o1 (stereo not shown) read 7.886%.

For CNC(=O)c1nc2c(s1)CCN(C(=O)Cc1ccc(OC)cc1)CC2 the result was 5.724%. With CNS(=O)(=O)c1ccc(C(=O)N2CCCC2c2ccccc2C)o1 (stereo not shown) the screen gave 8.659%. COC(=O)CC(c1cnn(C)c1)c1oc(C)cc(=O)c1O (stereo not shown) gave 8.889%. CC(C)(CO)CCCNC(=O)NC1(c2cccc(F)c2)CC1 gave 17.76%. For CC(C)(C)c1noc(CCCC(=O)N2CCNC(=O)CC2)n1 the result was 9.97%.

For CCCn1ccnc1-c1cccc(NC(=O)C2CCCOC2)c1 (stereo not shown) the result was 8.683%. For CSc1ccccc1CCC1CCS(=O)(=O)C1 (stereo not shown) the result was 2.466%. For O=C(NCCc1ccccc1)N1C[C@H]2C[C@H](C(=O)N3CCCC3)[C@@H](C1)O2 the result was 17.52%. For Cc1ccc(S(=O)(=O)NC[C@H]2OC[C@@H](NCc3cccs3)[C@@H]2O)cc1 the result was 5.763%. CNc1ncc(CN(C)C(=O)c2c[nH]nc2-c2cccc(F)c2)cn1 gave 17.98%.

Result for COc1cccc(COCC(=O)N2CCC(CC(N)=O)CC2)c1 was 14.29%. CCS(=O)(=O)NCc1nc(C)cc(N2CCCC2)n1 gave 4.802%. CCOC(=O)CNC(=O)N1CCOC(Cc2ccc(OC)cc2)C1 (stereo not shown) read 9.059%. Cc1c(F)cc(C(=O)O)cc1S(=O)(=O)Nc1cccc(C(F)F)c1 read 3.067%. CN1C(Cn2cccn2)C[C@@H]2CN(C(=O)c3cccc(C#N)c3)CC[C@@H]21 (stereo partly shown) gave 2.428%.

With CN1C[C@H](c2ccccc2)[C@H]2CN(C(=O)Cc3cccc(O)c3)CC[C@H]21 the screen gave 15.7%. With O=C1CC(c2cccc(O)c2)c2c(c(C(=O)O)cn2-c2ccccc2)N1 (stereo not shown) the screen gave 13.69%. CC(C)[C@@H]1CN(C(=O)CN(C)Cc2ccccc2)C[C@H]1C(=O)O read 13.6%. CO[C@H]1CC[C@H]2[C@H]1OCCN2C(=O)C1=CCCC1 gave -1.37%. For COC(=O)c1cccn1C1CCN(CC(=O)NC2CCCCC2)CC1 the result was 9.408%.

With CCn1nc(C)c2ncnc(NCCCN3CCOCC3)c21 the screen gave 7.884%. For Cc1nc(CC(=O)N2CCCC(N(C)Cc3ccccc3)C2)cs1 (stereo not shown) the result was 13.33%. For Cc1cn(-c2ccccc2)nc1NS(=O)(=O)c1ccc(C(=O)O)cc1F the result was 14.5%. For COc1ccc(-c2ccnc(N)c2)c(OC)c1 the result was 3.684%. With COc1ccc(CN2C[C@@H]3CN(C(=O)c4ccsc4)C[C@@H]3C2=O)cc1 the screen gave 14.07%.

For O=C(NCCN1CCCC1)c1ccc2c(-c3nccs3)noc2c1 the result was 6.767%.

The first 3 entries again:

compound	Inhibition
Cc1nn(C)c(C)c1CN1CCN(CC2(O)CCCN(C)C2)CC1 (stereo not shown)	23.8%
O=C(NCCc1ccccn1)[C@@]12CCO[C@@H]1CCN(c1ncccn1)C2	18.49%
CCOc1ccc(CC(CNC(=O)c2ccc(C)o2)C(N)=O)cc1 (stereo not shown)	9.278%